For eight compounds, normalised response results are on record in the supplement of paper PMC4862054.

Holding throughout (test): normalised response (% of control), CellTox Green; higher = less cell death (100 = DMSO, 0 = benzethonium chloride kill control)
Common to all, as to settings: incubation time: 72 h

The subject of experiment [1] is HCC1937. As for the experimental part: (§1)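 DSRT, 72 h incubation, CellTox Green / CellTiter-Glo readout. Signal is normalised to DMSO and benzethonium chloride controls. Value is the normalised response at the lowest tested concentration.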
Experiment [2] concerns CAL-51. The method, then: as §1
Experiment [3] relates to BT-549. As for the experimental part:
as §1

Experiment [4] deals with HCC1143. As for the experimental part: as §1
In experiment [5] the test system is CAL-85-1. As for the experimental part: as §1
Experiment [6] relates to DU-4475. As for the experimental part:
as §1

The subject of experiment [7] is CAL-148. The method, then: as §1
Experiment [8] relates to CAL-120. As for the experimental part:
as §1

The test system of experiment [9] is MDA-MB-453. As for the experimental part: as §1
Experiment [10] relates to HDQ-P1. As for the experimental part:
as §1

For experiment [11], the system named is MDA-MB-231. The method, then: as §1
Experiment [12] concerns HCC1599. The method, then:
as §1

In experiment [13] the test system is BT-474. As for the experimental part: as §1
Experiment [14] deals with Hs578T. The method, then: as §1
Experiment [15] concerns MFM-223. The method, then:
as §1

For experiment [16], the system named is MCF-10A. The method, then: as §1
Experiment [17] deals with HCC1937. The method, then: (§2)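 DSRT, 72 h incubation, CellTox Green / CellTiter-Glo readout. Signal is normalised to DMSO and benzethonium chloride controls. Value is the normalised response at dose 2.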
The source holds these as a separate data set.

For experiment [18], the system named is CAL-51. The method, then: as §2
This is another data set of the same source.

For experiment [19], the system named is BT-549. As for the experimental part: as §2
This is another data set of the same source.

Experiment [20] has as its system HCC1143. The method, then:
as §2
The source holds these as a separate data set.

The subject of experiment [21] is CAL-85-1. As for the experimental part: as §2
The source holds these as a separate data set.

The subject of experiment [22] is DU-4475. As for the experimental part: as §2
The source holds these as a separate data set.

In experiment [23] the test system is CAL-148. The method, then:
as §2
This is another data set of the same source.

For experiment [24], the system named is CAL-120. As for the experimental part:
as §2
The source holds these as a separate data set.

The test system of experiment [25] is MDA-MB-453. As for the experimental part: as §2
The source holds these as a separate data set.

The subject of experiment [26] is HDQ-P1. As for the experimental part:
as §2
The source holds these as a separate data set.

Experiment [27] relates to MDA-MB-231. As for the experimental part:
as §2
The source holds these as a separate data set.

Experiment [28] concerns MDA-MB-436. The method, then: as §2
The test system of experiment [29] is HCC1599. As for the experimental part: as §2
The source holds these as a separate data set.

The test system of experiment [30] is BT-474. The method, then:
as §2
The source holds these as a separate data set.

In experiment [31] the test system is Hs578T. The method, then: as §2
This is another data set of the same source.

Experiment [32] concerns MFM-223. As for the experimental part: as §2
This is another data set of the same source.

The subject of experiment [33] is MDA-MB-468. The method, then: as §2
Experiment [34] has as its system MCF-10A. The method, then:
as §2
This is another data set of the same source.

In experiment [35] the test system is MDA-MB-436. The method, then: as §1
This is another data set of the same source.

Experiment [36] has as its system MDA-MB-468. As for the experimental part: as §1
This is another data set of the same source.

Most entries show no effect beyond the scatter of the controls.

With `COc1cc(F)c(F)c(Nc2ccc(I)cc2F)c1NS(=O)(=O)C1(C[C@H](O)CO)CC1` [Refametinib] (1 nM), the normalised response in [1] came to 86.7%; in experiment [2], 74.1%; in [3], 89%; in [4], 101%; in experiment [5], 97.7%; in experiment [6], 94.3%. Further, the normalised response in experiment [7] is 99.3%; in experiment [8] it was 97.6%; in experiment [9], 104%; in experiment [10], 91.4%; in [11], 103%; in [12], 94.2%. Besides, the normalised response in experiment [13] worked out at 91%; in experiment [14] it was 98.7%; in experiment [15], 88.8%; in experiment [16] it was 105%.
On to `c1ccc2c(CCNc3ccc(Nc4ccncc4)cc3)c[nH]c2c1` [Serdemetan] (10 nM), for which the normalised response in experiment [17] worked out at 91.7%; in experiment [18], 94.5%; in [19], 99.8%; in experiment [20], 103%; in [21] it was 102%; in experiment [22], 97.9%. In addition, the normalised response was found to be 102% in [23]; 99.9% in [24]; 51% in experiment [25]; 111% in experiment [26]; 74.5% in [27]; 84% in experiment [28]. The normalised response in experiment [29] worked out at 92.1%; in experiment [30], 98.8%; in experiment [31], 120%; in experiment [32], 93%; in [33] it was 88.4%; in [34], 105%.
For the compound `CN(N=O)C(=O)N[C@@H](C=O)[C@@H](O)[C@H](O)[C@H](O)CO` [Streptozocin] (1 nM), the normalised response in experiment [1] stood at 113%; in experiment [2] it was 116%; in experiment [3], 110%; in experiment [4] it was 96.7%; in [5], 97.8%; in experiment [6], 112%. For the same compound, the normalised response in experiment [7] was found to be 90.6%; in [8], 105%; in experiment [10], 108%; in [11], 112%; in experiment [35], 95.8%; in experiment [12], 106%. The normalised response turned out to be 101% in experiment [13], 60.2% in [15], 90.9% in [36] and 104% in experiment [16].
Turning to `COc1cc2c(N3CCN(C(=O)Nc4ccc(OC(C)C)cc4)CC3)ncnc2cc1OCCCN1CCCCC1` [Tandutinib] (0.1 nM), the normalised response in experiment [1] worked out at 86.1%; in experiment [2] it was 79%; in [3], 91.5%; in experiment [4], 103%; in experiment [5], 102%; in experiment [6] it was 99.7%. Moreover, the normalised response was found to be 100% in experiment [7]; 96.8% in experiment [8]; 102% in experiment [9]; 97.5% in experiment [11]; 64.6% in experiment [35]; 83.6% in [12]. Further, the normalised response in experiment [13] worked out at 101%; in experiment [15], 89.5%; in [36], 112%; in experiment [16] it was 89.3%.
For `C[C@@H](C(=O)O)c1ccc(-c2ccccc2)c(F)c1` [Tarenflurbil] (1 nM), the normalised response in experiment [1] was 86.6%; in experiment [2], 98.7%; in experiment [3], 104%; in experiment [5] it was 97.6%; in [6] it was 97.2%; in experiment [7] it was 100%. Besides, the normalised response in experiment [8] was 99.3%; in experiment [9], 107%; in [10], 98.1%; in experiment [11], 96.7%; in experiment [12] it was 89.7%; in [13], 97.5%. In addition, the normalised response worked out at 94% in experiment [14], 73.6% in experiment [15], 82.9% in [36] and 78.5% in experiment [16].
As for `CC1=C(/C=C/C(C)=C/C=C/C(C)=C/C(=O)O)C(C)(C)CCC1` [Tretinoin] (10 nM), the normalised response in experiment [17] amounted to 120%; in [18], 83.1%; in experiment [19], 102%; in experiment [20] it was 108%; in experiment [21], 112%; in experiment [22] it was 94.2%. Moreover, the normalised response in experiment [23] came to 109%; in [24] it was 98.4%; in [25], 95.5%; in [26], 111%; in [27], 114%; in experiment [28], 107%. The normalised response in experiment [29] amounted to 102%; in experiment [30], 106%; in experiment [31], 129%; in experiment [32], 101%; in experiment [33], 152%; in experiment [34], 95.4%.
On to `O=C(CCCCCCC(=O)Nc1ccc([C@H]2O[C@@H](CSc3nc(-c4ccccc4)c(-c4ccccc4)o3)C[C@@H](c3ccc(CO)cc3)O2)cc1)NO` [Tubacin] (10 nM), for which the normalised response in [17] was 101%; in experiment [18] it was 115%; in experiment [19] it was 109%; in [20], 107%; in experiment [21], 107%; in experiment [22] it was 97%. Also, the normalised response was 109% in [23]; 99.9% in experiment [24]; 90% in [25]; 115% in experiment [26]; 100% in experiment [27]; 101% in [28]. Besides, the normalised response in experiment [29] was found to be 92.3%; in experiment [30], 103%; in experiment [31], 120%; in experiment [32], 91.9%; in [33], 105%; in experiment [34], 78.2%.
In the case of `COc1cc2c(NC3CCN(C(C)C)CC3)nc(N3CCC(F)(F)CC3)nc2cc1OCCCN1CCCC1` [UNC0642] (10 nM), the normalised response in experiment [17] was 99.7%; in [18] it was 73.4%; in experiment [19], 104%; in experiment [20] it was 107%; in [21], 99.1%; in [22], 93.5%. Moreover, the normalised response was 106% in [23]; 99.4% in experiment [24]; 95.1% in experiment [25]; 116% in experiment [26]; 95.5% in experiment [27]; 70.8% in experiment [28]. The normalised response in experiment [29] is 94.1%; in experiment [30], 99%; in experiment [31], 116%; in experiment [32] it was 103%; in experiment [33], 90.1%; in experiment [34], 98.5%.
